The values that follow come from patent US20060174355A1.

No constants are given. Whether binding was seen depends on the method and setting.

The target in this assay is GST alone. Description: GST pull-down of in vitro translated 35S-ERRL1, SDS-PAGE and autoradiography.

B1: ERRL1 (ERR ligand 1), mouse (ligand)
chain: MAGNDCGALLDEELSSFFLNYLSDTQGGDSGEEQLCADLPELDLSQLDASDFDSATCFGELQWCPETSETEPSQYSPDDSELFQIDSENEALLAALTKTLDDIPEDDVGLAAFPELDEGDTPSCTPASPAPLSAPPSPTLERLLSPASDVDELSLLQKLLLATSSPTASSDALKDGATWSQTSLSSRSQRPCVKVDGTQDKKTPTLRAQSRPCTELHKHLTSVLPCPRVKACSPTPHPSPRLLSKEEEEEVGEDCPSPWLTPASPQDSLAQDTASPDSAQPPEEDVRAMVQLIRYMHTYCLPQRKLPQRAPEPIPQACSSLSRQVQPRSRHPPKAFWTEFSILRELLAQDILCDVSKPYRLAIPVYASLTPQSRPRPPKDSQASPAHSAMAEEVRITASPKSTGPRPSLRPLRLEVKRDVNKPTRQKREEDEEEEEEEEEEEEEKEEEEEEWGRKRPGRGLPWTKLGRKMDSSVCPVRRSRRLNPELGPWLTFTDEPLGALPSMCLDTETHNLEEDLGSLTDSSQGRQLPQGSQIPALESPCESGCGDTDEDPSCPQPTSRDSSRCLMLALSQSDSLGKKSFEESLTVELCGTAGLTPPTTPPYKPMEEDPFKPDTKLSPGQDTAPSLPSPEALPLTATPGASHKLPKRHPERSELLSHLQHATTQPVSQAGQKRPFSCSFGDHDYCQVLRPEAALQRKVLRSWEPIGVHLEDLAQQGAPLPTETKAPRREANQNCDPTHKDSMQLRDHEIRASLTKHFGLLETALEGEDLASCKSPEYDTVFEDSSSSSGESSFLLEEEEEEEEGGEEDDEGEDSGVSPPCSDHCPYQSPPSKASRQLCSRSRSSSGSSSCSSWSPATRKNFRRESRGPCSDGTPSVRHARKRREKAIGEGRVVYIRNLSSDMSSRELKKRFEVFGEIVECQVLTRSKRGQKHGFITFRCSEHAALSVRNGATLRKRNEPSFHLSYGGLRHFRWPRYTDYDPTSEESLPSSGKSKYEAMDFDSLLKEAQQSLH
Take B1: the binding result is “no binding”.
